Laboratory results from paper PMC9907051.

System: GST-VabHLH137
Experiment: EMSA
Details: unlabeled probe used as competitor; EMSA per manufacturer's instructions (Thermo Scientific), biotin-labeled probe; pH and temperature not stated; recombinant protein; protein details: GST (pGEX4T-1); label: biotin

ATAAAGCACATGGAGTAT (double strand) [VaLAR2 promoter E-box probe]
binding result: binds

For at least one entry, the source does not settle the construct or the ends of the probe.
